Reference: the supplement of paper PMC8612539
Converted amounts (≈) assume the structure as drawn. The source gives many values for each of these; only a part stands here.

Tested on: Escherichia coli
Test: minimum inhibitory concentration (MIC)
Experimental: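 Broth microdilution MIC (Sensititre BOPO7F bovine plate, CLSI methods) of 19 antimicrobials against field isolates of P. multocida, M. haemolytica, H. somni (deep nasopharyngeal swabs) and E. coli, Enterococcus spp. (rectal swabs) from weaned dairy heifers. Incubation 16-24 h at 35 C. MIC is the lowest concentration preventing visible growth. Values with <= or > lie at the tested range limits. Trimethoprim-sulfamethoxazole is given as the trimethoprim component of a 1:19 mixture.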

## CN[C@@H]1[C@H](O)[C@H](NC)[C@H]2O[C@@]3(O)C(=O)C[C@@H](C)O[C@H]3O[C@@H]2[C@H]1O [Spectinomycin]
Isolate (source animal id): 221
  minimum inhibitory concentration: ≤ 8 µg/mL
Isolate (source animal id): 222
  minimum inhibitory concentration: 16 µg/mL (≈ 48.1 µM)
Isolate (source animal id): 223
  minimum inhibitory concentration: 16 µg/mL (≈ 48.1 µM)
Isolate (source animal id): 224
  minimum inhibitory concentration: 16 µg/mL (≈ 48.1 µM)
Isolate (source animal id): 225
  minimum inhibitory concentration: > 64 µg/mL
Isolate (source animal id): 226
  minimum inhibitory concentration: > 64 µg/mL
Isolate (source animal id): 227
  minimum inhibitory concentration: 16 µg/mL (≈ 48.1 µM)
Isolate (source animal id): 228
  minimum inhibitory concentration: > 64 µg/mL
Isolate (source animal id): 229
  minimum inhibitory concentration: > 64 µg/mL
Isolate (source animal id): 230
  minimum inhibitory concentration: 16 µg/mL (≈ 48.1 µM)
Isolate (source animal id): 231
  minimum inhibitory concentration: 16 µg/mL (≈ 48.1 µM)
Isolate (source animal id): 232
  minimum inhibitory concentration: 16 µg/mL (≈ 48.1 µM)
Isolate (source animal id): 233
  minimum inhibitory concentration: 32 µg/mL (≈ 96.3 µM)
Isolate (source animal id): 234
  minimum inhibitory concentration: 16 µg/mL (≈ 48.1 µM)
Isolate (source animal id): 235
  minimum inhibitory concentration: 16 µg/mL (≈ 48.1 µM)
Isolate (source animal id): 236
  minimum inhibitory concentration: 16 µg/mL (≈ 48.1 µM)
Isolate (source animal id): 237
  minimum inhibitory concentration: > 64 µg/mL
Isolate (source animal id): 238
  minimum inhibitory concentration: > 64 µg/mL
Isolate (source animal id): 239
  minimum inhibitory concentration: 16 µg/mL (≈ 48.1 µM)
Isolate (source animal id): 240
  minimum inhibitory concentration: > 64 µg/mL
Isolate (source animal id): 241
  minimum inhibitory concentration: > 64 µg/mL
Isolate (source animal id): 242
  minimum inhibitory concentration: 32 µg/mL (≈ 96.3 µM)
Isolate (source animal id): 243
  minimum inhibitory concentration: 16 µg/mL (≈ 48.1 µM)
Isolate (source animal id): 244
  minimum inhibitory concentration: 16 µg/mL (≈ 48.1 µM)
Isolate (source animal id): 245
  minimum inhibitory concentration: > 64 µg/mL
Isolate (source animal id): 246
  minimum inhibitory concentration: 16 µg/mL (≈ 48.1 µM)
Isolate (source animal id): 247
  minimum inhibitory concentration: 16 µg/mL (≈ 48.1 µM)
Isolate (source animal id): 248
  minimum inhibitory concentration: 16 µg/mL (≈ 48.1 µM)
Isolate (source animal id): 249
  minimum inhibitory concentration: 16 µg/mL (≈ 48.1 µM)
Isolate (source animal id): 250
  minimum inhibitory concentration: 16 µg/mL (≈ 48.1 µM)
Isolate (source animal id): 251
  minimum inhibitory concentration: > 64 µg/mL
Isolate (source animal id): 252
  minimum inhibitory concentration: 16 µg/mL (≈ 48.1 µM)
Isolate (source animal id): 253
  minimum inhibitory concentration: 16 µg/mL (≈ 48.1 µM)
Isolate (source animal id): 254
  minimum inhibitory concentration: 16 µg/mL (≈ 48.1 µM)
Isolate (source animal id): 255
  minimum inhibitory concentration: > 64 µg/mL
Isolate (source animal id): 256
  minimum inhibitory concentration: > 64 µg/mL
Isolate (source animal id): 257
  minimum inhibitory concentration: 16 µg/mL (≈ 48.1 µM)
Isolate (source animal id): 258
  minimum inhibitory concentration: 16 µg/mL (≈ 48.1 µM)
Isolate (source animal id): 259
  minimum inhibitory concentration: > 64 µg/mL
Isolate (source animal id): 260
  minimum inhibitory concentration: 16 µg/mL (≈ 48.1 µM)
Isolate (source animal id): 261
  minimum inhibitory concentration: 16 µg/mL (≈ 48.1 µM)
Isolate (source animal id): 262
  minimum inhibitory concentration: 16 µg/mL (≈ 48.1 µM)
Isolate (source animal id): 263
  minimum inhibitory concentration: 16 µg/mL (≈ 48.1 µM)
Isolate (source animal id): 264
  minimum inhibitory concentration: 16 µg/mL (≈ 48.1 µM)
Isolate (source animal id): 265
  minimum inhibitory concentration: > 64 µg/mL
Isolate (source animal id): 266
  minimum inhibitory concentration: 32 µg/mL (≈ 96.3 µM)
Isolate (source animal id): 267
  minimum inhibitory concentration: > 64 µg/mL
Isolate (source animal id): 268
  minimum inhibitory concentration: 16 µg/mL (≈ 48.1 µM)
Isolate (source animal id): 269
  minimum inhibitory concentration: 16 µg/mL (≈ 48.1 µM)
Isolate (source animal id): 270
  minimum inhibitory concentration: 16 µg/mL (≈ 48.1 µM)
Isolate (source animal id): 271
  minimum inhibitory concentration: > 64 µg/mL
Isolate (source animal id): 272
  minimum inhibitory concentration: ≤ 8 µg/mL
Isolate (source animal id): 273
  minimum inhibitory concentration: 16 µg/mL (≈ 48.1 µM)
Isolate (source animal id): 274
  minimum inhibitory concentration: > 64 µg/mL
Isolate (source animal id): 275
  minimum inhibitory concentration: > 64 µg/mL
Isolate (source animal id): 276
  minimum inhibitory concentration: > 64 µg/mL
Isolate (source animal id): 277
  minimum inhibitory concentration: 16 µg/mL (≈ 48.1 µM)
Isolate (source animal id): 278
  minimum inhibitory concentration: 16 µg/mL (≈ 48.1 µM)
Isolate (source animal id): 279
  minimum inhibitory concentration: 16 µg/mL (≈ 48.1 µM)
Isolate (source animal id): 280
  minimum inhibitory concentration: > 64 µg/mL
